Test results as given in US4882234A, “Storage-stable porphin compositions and a method for their manufacture” (Healux, Inc., priority 1986, dated 1989).
At least one read-out could not be matched to a standard name with certainty.

Assay: Thermal and storage stability of the active species in solution (composition/purity over time)
Format: physicochemical
Settings: about 20 hours, initial slightly greater than 70%

## Bis-1-[8-(1-hydroxyethyl)-deuteroporphyrin-3-yl] ethyl ether [DHE]
  Purity after exposure to 37° C.: about 55%
